Data as given in the supplement of paper PMC10338343.
± gives the standard deviation. Only a part is listed here, and it is no random draw. Many of these values have a large error.

System: MIWI (PIWIL1) piRISC loaded with L1MC piRNA (30 nt)
Assay: pre-steady-state target cleavage rate (min^-1); MIWI and MILI are mouse PIWI proteins and EfPiwi is from a freshwater sponge; tags in brackets are library labels; higher = faster piRNA-guided slicing of the target
Conditions: guide: L1MC piRNA 5'p-UAACUAAAUACUAUGCAAGCUGUAGGUCCU; auxiliary factor: 500 nM mouse GTSF1
Outline: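 Reactions were run for 0–8 or 0–960 min at 33 °C in HEPES–potassium acetate buffer, combining 1 nM active affinity-purified piRISC with one synthetic guide, […] transcribed, DNA-blocked target RNA library and, in some cases, 500 nM GTSF1 partner protein. Sequencing of uncleaved targets followed, with normalisation to depth and to weakly complementary targets. Three trials were pooled, k3 was capped at 0.0001 min^-1, and the pre-steady-state cleavage rate was taken from a burst-and-steady-state fit.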
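Note: 1 nM active piRISC with 0.1 nM target library at 33 °C single turnover.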

| Sequence | pre-steady-state target cleavage rate |
| --- | --- |
| AGGACGAUCAGCUUGCAUAGUAUUUAGAAA | 0.384 ± 0.061 |
| AGGACCUCACAGCUUGCAUAGUAUUUAGUUA | 1.28 ± 0.064 |
| UGGACCUACAGCUUGCAUAGAAUUUACAAA | 0.29 ± 0.062 |
| UGCACCUACAGCUUGGAUAGUAUUUAGUUA | 1.18 ± 0.065 |
| UGGACCUACAGCUUAGCAUAGUAUUUAGUUA | 1.45 ± 0.08 |
| UGGAGCUUCAGCUUGCAUAGUAUUUAGUUA | 1.34 ± 0.048 |
| UCCUGCUACAGCUUGCAAUCUAUUUUCAAA | 0.00167 ± 0.0051 |
| AGGACUACAGCUUGCAUAGUAUUUAGUUA | 1.24 ± 0.066 |
| UCCACCUACAGCUUGCAUAUUAUUUAGUUA | 1.01 ± 0.075 |
| UCCUGGAUGUGCUUGCAUAGUAUUUGUUA | 0.00205 ± 0.0063 |
| UGGACCUACAGCUUGCUAUGUAUUUAGUUA | 0.115 ± 0.016 |
| UCGACCGACAGCUUGCAUAGUAUUUAGUUA | 1.41 ± 0.05 |
| UGGACCUACAGCUUGCAUACAUUUUAGUUA | 0.00213 ± 0.0028 |
| UCCUGGAUGUCGUUCGAUAGUAUUUAGUUA | 0.00016 ± 0.064 |
| UCCUGGAUGUCGAACGUAAGUUUUUAGUAA | 0.000152 ± 0.048 |
| UCGACCUACAGGUUGCAUAGUAUUUACUUA | 0.296 ± 0.04 |
| UCCUGGUACAGCUUGCAUAGCUAUUUAGUUA | 0.0034 ± 0.0042 |
| AGGACCUAUCAGCUUGCAUAGUAUUUAGUUA | 1.25 ± 0.055 |
| AGGACCCUACAGCUUGCAUAGUAUUUAGUUA | 1.24 ± 0.083 |
| UGGACCAACAGCUUGCAUAGUAUUUAGUAA | 1.17 ± 0.06 |
| AGGACCUAACAGCUUGCAUAGUAUUUAGUUA | 1.1 ± 0.059 |
| UGGAGCUACAGCUUGCUUAGUAUUUAGUUA | 1.33 ± 0.062 |
| AGGAGCUACACCUUGCAUAGUAUUUAGUUA | 1.36 ± 0.044 |
| UGGACCUACAGCCUGCAUAGUAUUUAGUUA | 1.34 ± 0.048 |
